# Screen size: about 1,300 compounds; about 330 (25%) were called active. How the calls were made is not given here. This is a selection; strong and weak results do not stand in their true shares. Potency and affinity values are given separately.
# Assay: growth inhibition of MALME3 cells – cell-based, CellTiter-Glo, cherry-picked, orthogonal assay for MITF inhibitor project, dose response (AID 493191)
# Settings: MALME3 melanoma viability, CellTiter-Glo luminescence, 24 h; at 35 µM (top of the series)
row,SMILES,"activity change, negative = inhibition"
1,Cc1cc(C)cc(N2C(=O)NC(=O)/C(=C\c3cccn3-c3ccccc3)C2=O)c1,inactive: -30%
2,O=C1NC(=S)NC(=O)C1=Cc1cccc2cc3ccccc3cc12,inactive: -17.5%
3,O=C1NC(=O)C(=Cc2ccc(-c3ccc(Cl)cc3)o2)C(=O)N1,inactive: -13.6%
4,CCCCCn1c(=O)c(C(=O)Nc2cnccn2)c(O)c2ccccc21,inactive: -9.54%
5,CCOC(=O)c1c(-n2c(C)cc(C=C3C(=O)NC(=S)NC3=O)c2C)sc2c1CCCC2,inactive: -8.46%
6,C=CCN1C(=O)NC(=O)/C(=C/C=C/c2ccccc2)C1=O,inactive: 7.07%
7,O=C1NC(=O)C(=Cc2ccc(-c3cc(Cl)ccc3[N+](=O)[O-])o2)C(=O)N1,inactive: -5.83%
8,C=CCN1C(=O)/C(=C/c2cc(C)n(-c3cccnc3)c2C)C(=O)NC1=S,inactive: 0.406%
9,O=C(Nc1ccc(OC(=O)N2CCCCC2)cc1)N1CCOCC1,inactive: 2.72%
10,CCOc1ccc(-c2cc(C)[n+](CCO)c(-c3ccc(OCC)cc3)c2)cc1,inactive: -4.18%
11,CC(C)n1c(O)c(C2c3cc(Cl)ccc3Oc3[nH]c(=O)n(C(C)C)c(=O)c32)c(=O)[nH]c1=O (configuration not stated),inactive: -7.76%
12,CCc1ccc(N2C(=O)NC(=O)/C(=C\C=C\c3ccco3)C2=O)cc1,inactive: -11%
13,CCOC(=O)Cn1cc([N+](=O)[O-])nc1[N+](=O)[O-],inactive: -44%
14,O=C1NC(=O)N(CCc2ccc(F)cc2)C(=O)/C1=C\C=C\c1ccccc1,inactive: 46.9%
15,CN(C)c1ccc(/C=C2/C(=N\O)C3CCN2CC3)cc1,inactive: -4.01%
16,O=C1NC(=O)N(c2ccccc2)C(=O)/C1=C/C=C/c1ccco1,inactive: -10.8%
17,Cc1cc(C)cc(N2C(=O)NC(=O)/C(=C\C=C\c3ccco3)C2=O)c1,inactive: -1%
18,O=C1NC(=O)N(Cc2ccccc2)C(=O)/C1=C/C=C/c1ccco1,inactive: -12%
19,Cc1cccc(N2C(=O)NC(=O)/C(=C\c3cccn3-c3ccc(Cl)cc3)C2=O)c1,inactive: -36.2%
20,CC(C)c1oc(=O)cc2c1[C@@H](O)[C@H]1OC(=O)[C@@]3(C)C[C@@H](O)[C@@H](O)[C@@]2(C)C13 (some centres not stated),inactive: -19.5%
21,O=C1NC(=S)NC(=O)C1=Cc1cccn1-c1ccc(O)cc1,inactive: -19%

# Ordered by length of the SMILES (ascending): part of the list above.
row,SMILES,"activity change, negative = inhibition"
14,O=C1NC(=O)N(CCc2ccc(F)cc2)C(=O)/C1=C\C=C\c1ccccc1,inactive: 46.9%
7,O=C1NC(=O)C(=Cc2ccc(-c3cc(Cl)ccc3[N+](=O)[O-])o2)C(=O)N1,inactive: -5.83%
5,CCOC(=O)c1c(-n2c(C)cc(C=C3C(=O)NC(=S)NC3=O)c2C)sc2c1CCCC2,inactive: -8.46%

# The list goes on:

row,SMILES,"activity change, negative = inhibition"
1,Cc1ccc(N2C(=O)NC(=O)/C(=C/C=C/c3ccco3)C2=O)cc1,inactive: -19.4%
2,CCCCCCn1c(=O)c(C(=O)Nc2cnccn2)c(O)c2ccccc21,inactive: -5.24%
3,C/C(=C\c1ccc(N(C)C)cc1)[N+](=O)[O-],inactive: -15.3%
4,CC(C)N1C(=O)/C(=C/C=C/c2ccco2)C(=O)N(Cc2ccco2)C1=O,inactive: -25.8%
5,Cc1ccc(-c2cc(-c3ccc(C)cc3)[n+](C)o2)cc1,inactive: -14.8%
6,O=C(c1ccccc1)C(CN1CCCC1)c1ccccc1 (configuration not stated),inactive: -12.5%
7,NC(Cc1nc2ccccc2[nH]1)c1ccc(Cl)cc1 (configuration not stated),inactive: 0.031%
8,O=C1NC(=O)N(Cc2ccccc2)C(=O)/C1=C\C=C\c1ccco1,inactive: -5.11%
9,Cc1cc(C(=O)Nc2ccccc2)nn1C(C)(C)C,inactive: 2.03%
10,CN1C(=O)/C(=C/c2cccn2-c2ccc3ccccc3c2)C(=O)NC1=S,inactive: -28.2%
11,CC(C)c1ccc(N2C(=O)NC(=O)/C(=C/C=C/c3ccco3)C2=O)cc1,inactive: 6.53%
12,O=C1NC(=O)N(Cc2ccccc2Cl)C(=O)/C1=C/c1cccs1,inactive: -24.6%
13,O=C1NC(=O)N(Cc2ccc(F)cc2)C(=O)/C1=C\C=C\c1ccco1,inactive: -11.3%
14,CC[n+]1c(/C=C/N(C)c2ccccc2)sc2ccc(Cl)cc21,inactive: -37.5%
15,Cc1cccc(N2C(=O)NC(=O)/C(=C\C=C\c3ccco3)C2=O)c1,inactive: -18.2%
16,Cc1ccc(N2C(=O)NC(=O)/C(=C\C=C\c3ccco3)C2=O)cc1,inactive: -27.9%
17,O=c1[nH]c(=S)[nH]c(O)c1N=Nc1ccc(S(=O)(=O)N2CCc3ccccc32)cc1,inactive: -12.2%
18,Cc1cc(C(=O)Nc2ccc3c(c2)OCCO3)nn1C(C)(C)C,inactive: -3.19%
19,COc1cc2c(cc1/C=C/[N+](=O)[O-])OCO2,inactive: -33%
20,NCCc1ccc(OCc2ccccc2)c(OCc2ccccc2)c1,-82.1%
21,COc1ccc(-c2cc(-c3ccccc3)[n+](C)c(-c3ccccc3)c2)cc1,inactive: -39.3%
